This passage reports binding results from patent publication US20200057047A1.

The chains behind the UniProt entries cited, without tags or fusion partners. Where a name states a change or a piece, a line headed by the entry shows the natural chain unless it says otherwise. A line that says so, or that is headed by a name, gives the form on record, which may keep a tag or linker. Residues count along the entry.
UniProt P30561, residues 10-848: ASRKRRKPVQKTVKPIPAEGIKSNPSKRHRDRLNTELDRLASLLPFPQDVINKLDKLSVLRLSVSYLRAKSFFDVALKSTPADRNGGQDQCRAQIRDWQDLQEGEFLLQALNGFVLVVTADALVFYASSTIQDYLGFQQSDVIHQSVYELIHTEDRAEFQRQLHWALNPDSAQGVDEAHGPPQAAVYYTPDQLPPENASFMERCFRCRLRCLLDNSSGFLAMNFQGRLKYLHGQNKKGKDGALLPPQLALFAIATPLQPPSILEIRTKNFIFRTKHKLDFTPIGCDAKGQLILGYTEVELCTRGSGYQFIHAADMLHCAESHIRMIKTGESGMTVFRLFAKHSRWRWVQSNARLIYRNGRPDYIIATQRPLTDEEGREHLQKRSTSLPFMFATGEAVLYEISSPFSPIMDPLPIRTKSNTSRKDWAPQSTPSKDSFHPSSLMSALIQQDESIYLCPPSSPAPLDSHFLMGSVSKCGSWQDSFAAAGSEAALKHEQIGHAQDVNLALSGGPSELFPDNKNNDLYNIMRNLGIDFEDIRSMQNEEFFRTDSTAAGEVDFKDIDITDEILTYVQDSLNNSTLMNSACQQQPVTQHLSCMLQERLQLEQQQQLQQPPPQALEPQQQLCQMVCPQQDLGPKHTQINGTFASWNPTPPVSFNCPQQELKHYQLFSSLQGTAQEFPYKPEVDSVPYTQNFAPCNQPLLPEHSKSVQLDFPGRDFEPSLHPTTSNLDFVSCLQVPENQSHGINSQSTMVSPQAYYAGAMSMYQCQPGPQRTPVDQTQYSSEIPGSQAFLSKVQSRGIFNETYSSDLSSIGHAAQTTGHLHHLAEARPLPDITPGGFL
UniProt P46940: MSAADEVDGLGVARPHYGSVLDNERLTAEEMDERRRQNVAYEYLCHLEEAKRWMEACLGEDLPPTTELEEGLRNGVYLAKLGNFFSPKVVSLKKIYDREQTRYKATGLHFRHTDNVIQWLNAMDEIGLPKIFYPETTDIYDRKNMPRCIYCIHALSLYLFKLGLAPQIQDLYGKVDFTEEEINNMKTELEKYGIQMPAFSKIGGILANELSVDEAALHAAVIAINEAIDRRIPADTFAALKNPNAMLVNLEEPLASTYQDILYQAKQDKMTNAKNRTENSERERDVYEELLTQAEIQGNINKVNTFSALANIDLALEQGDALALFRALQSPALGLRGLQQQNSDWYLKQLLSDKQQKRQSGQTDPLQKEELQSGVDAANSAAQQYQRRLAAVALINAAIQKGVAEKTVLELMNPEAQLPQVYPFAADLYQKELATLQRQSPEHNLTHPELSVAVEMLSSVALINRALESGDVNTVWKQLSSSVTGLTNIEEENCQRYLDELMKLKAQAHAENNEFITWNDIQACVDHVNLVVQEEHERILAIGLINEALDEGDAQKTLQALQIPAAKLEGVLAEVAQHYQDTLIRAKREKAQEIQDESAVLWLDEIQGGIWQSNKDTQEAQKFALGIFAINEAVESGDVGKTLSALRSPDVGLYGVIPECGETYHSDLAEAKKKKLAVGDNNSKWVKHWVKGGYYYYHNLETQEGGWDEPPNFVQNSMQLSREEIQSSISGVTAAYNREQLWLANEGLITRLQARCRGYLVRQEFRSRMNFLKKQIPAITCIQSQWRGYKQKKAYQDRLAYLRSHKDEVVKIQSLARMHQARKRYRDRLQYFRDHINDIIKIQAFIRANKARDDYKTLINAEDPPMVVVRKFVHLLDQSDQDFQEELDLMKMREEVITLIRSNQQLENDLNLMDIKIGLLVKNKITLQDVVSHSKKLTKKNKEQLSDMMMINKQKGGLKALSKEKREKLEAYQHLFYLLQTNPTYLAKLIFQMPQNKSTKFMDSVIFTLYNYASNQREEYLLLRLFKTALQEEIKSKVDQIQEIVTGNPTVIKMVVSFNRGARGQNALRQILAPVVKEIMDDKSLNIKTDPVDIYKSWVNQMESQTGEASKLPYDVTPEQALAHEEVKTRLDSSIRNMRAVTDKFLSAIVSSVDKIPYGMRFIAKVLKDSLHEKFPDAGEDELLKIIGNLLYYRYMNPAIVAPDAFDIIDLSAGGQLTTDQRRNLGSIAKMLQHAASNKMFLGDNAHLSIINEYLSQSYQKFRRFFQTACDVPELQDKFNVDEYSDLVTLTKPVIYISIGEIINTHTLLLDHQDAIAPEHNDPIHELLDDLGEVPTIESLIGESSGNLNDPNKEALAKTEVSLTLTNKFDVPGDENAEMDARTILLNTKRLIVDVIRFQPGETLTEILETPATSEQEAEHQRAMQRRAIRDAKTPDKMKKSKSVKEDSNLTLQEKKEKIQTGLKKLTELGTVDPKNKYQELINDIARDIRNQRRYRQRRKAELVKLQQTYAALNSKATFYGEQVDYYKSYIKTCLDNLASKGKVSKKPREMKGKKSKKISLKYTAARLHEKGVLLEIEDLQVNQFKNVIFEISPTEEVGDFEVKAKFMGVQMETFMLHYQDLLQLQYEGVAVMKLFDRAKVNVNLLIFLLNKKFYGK
UniProt Q8IVH8: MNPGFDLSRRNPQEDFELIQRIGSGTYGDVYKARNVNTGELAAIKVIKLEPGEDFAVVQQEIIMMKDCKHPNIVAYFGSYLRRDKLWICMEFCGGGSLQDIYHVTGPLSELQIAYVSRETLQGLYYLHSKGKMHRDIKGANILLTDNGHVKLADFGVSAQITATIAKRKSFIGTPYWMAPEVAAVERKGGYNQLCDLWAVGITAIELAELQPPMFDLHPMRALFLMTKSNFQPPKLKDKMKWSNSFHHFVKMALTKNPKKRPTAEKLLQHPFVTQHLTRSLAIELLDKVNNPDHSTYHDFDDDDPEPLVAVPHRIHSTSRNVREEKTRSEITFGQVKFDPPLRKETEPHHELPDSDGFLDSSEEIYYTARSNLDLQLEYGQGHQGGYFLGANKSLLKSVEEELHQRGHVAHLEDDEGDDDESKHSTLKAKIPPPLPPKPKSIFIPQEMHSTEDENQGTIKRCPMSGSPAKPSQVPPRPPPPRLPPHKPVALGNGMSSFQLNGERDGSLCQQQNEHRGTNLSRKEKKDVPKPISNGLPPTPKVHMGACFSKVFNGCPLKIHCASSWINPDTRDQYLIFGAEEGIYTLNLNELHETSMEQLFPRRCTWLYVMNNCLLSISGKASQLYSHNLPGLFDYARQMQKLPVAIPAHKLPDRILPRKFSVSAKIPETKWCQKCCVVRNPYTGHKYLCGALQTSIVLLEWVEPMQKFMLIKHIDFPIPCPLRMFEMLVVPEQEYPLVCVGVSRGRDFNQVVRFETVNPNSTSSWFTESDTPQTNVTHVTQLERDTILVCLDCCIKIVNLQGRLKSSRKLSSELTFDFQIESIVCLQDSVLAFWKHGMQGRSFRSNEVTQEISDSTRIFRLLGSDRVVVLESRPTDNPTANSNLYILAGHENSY
Flag-tagged GLK (Q8IVH8, form named): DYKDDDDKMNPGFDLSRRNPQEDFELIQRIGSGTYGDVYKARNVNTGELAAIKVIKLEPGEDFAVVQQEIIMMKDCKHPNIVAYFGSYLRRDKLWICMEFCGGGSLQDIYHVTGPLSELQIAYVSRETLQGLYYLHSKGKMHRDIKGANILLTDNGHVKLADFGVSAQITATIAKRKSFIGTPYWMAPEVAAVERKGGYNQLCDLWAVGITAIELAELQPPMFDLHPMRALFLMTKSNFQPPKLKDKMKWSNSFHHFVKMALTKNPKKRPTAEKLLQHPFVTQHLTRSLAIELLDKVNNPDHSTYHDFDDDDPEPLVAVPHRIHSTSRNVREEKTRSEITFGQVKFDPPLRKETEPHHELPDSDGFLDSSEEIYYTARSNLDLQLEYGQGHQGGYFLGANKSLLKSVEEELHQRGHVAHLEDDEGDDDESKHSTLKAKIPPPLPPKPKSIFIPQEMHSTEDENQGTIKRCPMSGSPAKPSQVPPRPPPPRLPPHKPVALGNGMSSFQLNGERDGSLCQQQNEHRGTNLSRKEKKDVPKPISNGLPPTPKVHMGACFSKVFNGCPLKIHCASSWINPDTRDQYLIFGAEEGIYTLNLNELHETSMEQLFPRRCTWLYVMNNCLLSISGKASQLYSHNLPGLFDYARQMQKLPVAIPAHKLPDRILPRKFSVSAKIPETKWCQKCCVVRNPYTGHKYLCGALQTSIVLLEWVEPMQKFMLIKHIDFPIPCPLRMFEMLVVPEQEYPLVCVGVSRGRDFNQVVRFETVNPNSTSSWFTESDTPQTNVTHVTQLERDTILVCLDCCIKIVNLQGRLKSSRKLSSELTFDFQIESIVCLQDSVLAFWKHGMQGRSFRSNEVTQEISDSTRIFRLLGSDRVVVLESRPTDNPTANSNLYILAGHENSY
RORγt, endogenous, murine T cells (P51450, form named): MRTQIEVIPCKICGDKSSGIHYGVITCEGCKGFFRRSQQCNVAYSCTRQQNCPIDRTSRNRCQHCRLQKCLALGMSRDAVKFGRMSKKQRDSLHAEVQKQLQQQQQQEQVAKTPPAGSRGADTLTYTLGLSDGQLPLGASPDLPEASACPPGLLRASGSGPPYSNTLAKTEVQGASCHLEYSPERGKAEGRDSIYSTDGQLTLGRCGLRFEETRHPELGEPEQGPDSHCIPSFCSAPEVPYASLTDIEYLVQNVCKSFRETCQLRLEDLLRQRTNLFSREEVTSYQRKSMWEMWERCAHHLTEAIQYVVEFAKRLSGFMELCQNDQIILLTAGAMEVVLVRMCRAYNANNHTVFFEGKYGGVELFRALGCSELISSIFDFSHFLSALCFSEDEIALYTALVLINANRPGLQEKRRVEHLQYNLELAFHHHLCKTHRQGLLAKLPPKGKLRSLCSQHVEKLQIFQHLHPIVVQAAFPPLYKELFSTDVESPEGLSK
UniProt Q02111: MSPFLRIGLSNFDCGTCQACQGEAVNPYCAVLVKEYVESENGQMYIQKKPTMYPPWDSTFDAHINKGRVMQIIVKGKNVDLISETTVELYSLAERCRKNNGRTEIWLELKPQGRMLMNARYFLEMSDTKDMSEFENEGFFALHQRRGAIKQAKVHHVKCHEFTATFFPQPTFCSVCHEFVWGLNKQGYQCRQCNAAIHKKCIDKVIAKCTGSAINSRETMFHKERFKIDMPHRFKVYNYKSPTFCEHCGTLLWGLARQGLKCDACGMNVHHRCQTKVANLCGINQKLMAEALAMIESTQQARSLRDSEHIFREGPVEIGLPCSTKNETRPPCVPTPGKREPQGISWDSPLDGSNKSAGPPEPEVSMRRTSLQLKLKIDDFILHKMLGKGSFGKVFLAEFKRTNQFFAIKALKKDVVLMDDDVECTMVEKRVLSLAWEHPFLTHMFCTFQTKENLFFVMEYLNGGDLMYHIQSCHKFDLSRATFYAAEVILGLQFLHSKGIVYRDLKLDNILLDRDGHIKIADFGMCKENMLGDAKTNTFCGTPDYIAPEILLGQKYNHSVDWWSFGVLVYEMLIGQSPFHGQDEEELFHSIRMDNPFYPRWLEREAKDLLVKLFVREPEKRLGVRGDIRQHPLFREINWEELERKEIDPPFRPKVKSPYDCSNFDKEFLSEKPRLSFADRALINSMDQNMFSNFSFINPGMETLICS

For test [1], the target named is Aryl hydrocarbon receptor (AhR), endogenous, murine T cells (mouse) (UniProt P30561). Put plainly: co-IP and PLA, murine primary T cells stimulated with anti-CD3 (FIG. 6B).
Test [2] concerns the target YFP-tagged IQGAP1 fusion protein (Homo sapiens (Human)) (UniProt P46940). Put plainly: FRET, HEK293T transfectants (FIG. 18H).
Test [3] deals with Aryl hydrocarbon receptor (AhR), endogenous, murine T cells (mouse) (UniProt P30561). Put plainly: in situ PLA with probes for PKCθ and AhR, peripheral blood T cells (FIG. 3G).
The target is the same in test [4]. Put plainly: co-IP of endogenous proteins, lysates of primary splenic T cells (FIG. 3F).
In another test the target is GFP-GLK fusion protein (UniProt Q8IVH8). Put plainly: co-IP, HEK293T cells co-transfected with Flag-GLK and GFP-GLK; blocked by the small molecule verteporfin (FIG. 16C).
Test [5] has as its target Myc-tagged IQGAP1 (wild type) (Homo sapiens (Human)) (UniProt P46940). Put plainly: in situ PLA with probes for Flag and Myc, HEK293T transfectants (FIGS. 18F-G).
Test [6] has the same target. Put plainly: legend of FIG. 18; co-IP, PLA, FRET, purified proteins.
Test [7] shares this target. Put plainly: co-IP of purified Flag-GLK and Myc-IQGAP1 eluted with Flag and Myc peptides (FIG. 18I).
Test [8] shares this target. Put plainly: reciprocal co-IP (anti-Flag, anti-Myc), HEK293T cells transfected with Flag-GLK and Myc-IQGAP1 (FIGS. 18C-D).
In test [9] the target is RORγt, endogenous, murine T cells (mouse) (UniProt P51450). Put plainly: co-IP of endogenous proteins, lysates of primary splenic T cells (FIG. 4B).
Test [10] has the same target. Put plainly: in situ PLA, peripheral blood T cells (FIG. 4E).
Test [11] has the same target. Put plainly: in situ PLA, T cells of Lck-GLK;PKCθ-/- mice (FIG. 4E).
For test [12] the target is unchanged. Put plainly: legend of FIG. 6; co-IP and PLA in murine primary T cells.

Results are given in words; binding and its absence hold for the method and conditions named. For some of these results: Binding seen in cells or lysates may run through a third protein. Some entries that bind do so weakly or less than the wild type.

Take “RORγt, endogenous, murine T cells (from UniProt P51450 1-495) (receptor)”: the binding entry in [1] is on record as “binds”.
On to “CFP-tagged GLK fusion protein (from UniProt Q8IVH8 1-894) (enzyme)”, for which the binding result in test [2] is “binds”.
For the substance “PKCθ, endogenous, murine T cells (from UniProt Q02111 1-707) (enzyme)”, the binding entry in [3] and in [4] was “binds” throughout.
For “Flag-tagged GLK (from UniProt Q8IVH8 1-894) (enzyme)”, the binding result (in the test with GFP-GLK fusion protein; in test [5]; in test [6]; in test [7]; in test [8]) was “binds” in each case.
For the substance “Aryl hydrocarbon receptor (AhR), endogenous, murine T cells (from UniProt P30561 10-848)”, the binding result in [9], in test [10], in test [11] and in [12] was “binds” throughout.
